Substitutions are numbered along the chain they refer to. These are yes or no findings as the source states them, for the method shown. For part of these data: Binding seen in cells or lysates may run through a third protein. Some binding calls cover weakened binding; strength is not graded here. For part of these data: Tags and fused reporters may be left off the sequences shown.
Key:
[1] = target: T1, HA-Flag-GHRHR-Rluc8 (WT) (human) (UniProt Q02643); experiment: FRET or BRET; HEK 293 T cells co-transfected with HA-Flag-GHRHR-Rluc8 and β-arrestin2-Venus (1:9), coelenterazine h, 250 μM GHRH added; AUC of the BRET time course normalised to WT (100%)
T1 sequence: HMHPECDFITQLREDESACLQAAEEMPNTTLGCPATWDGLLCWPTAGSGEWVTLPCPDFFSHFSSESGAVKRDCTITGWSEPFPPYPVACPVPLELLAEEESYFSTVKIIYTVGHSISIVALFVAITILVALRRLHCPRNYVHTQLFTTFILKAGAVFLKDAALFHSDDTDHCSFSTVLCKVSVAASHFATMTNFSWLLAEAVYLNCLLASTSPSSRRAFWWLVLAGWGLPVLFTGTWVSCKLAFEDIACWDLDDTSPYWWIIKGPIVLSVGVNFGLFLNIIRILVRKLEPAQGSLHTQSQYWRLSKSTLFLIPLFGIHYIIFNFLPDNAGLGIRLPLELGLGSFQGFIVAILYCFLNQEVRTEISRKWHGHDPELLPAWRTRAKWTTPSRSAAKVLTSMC

[2] = target: T2, HA-Flag-GHRHR-Rluc8 M214V (human) (UniProt Q02643); experiment: as above
T2 sequence: T1 sequence with M192V

[3] = target: T1, HA-Flag-GHRHR-Rluc8 (WT) (human); experiment: FRET or BRET; HEK 293T cells co-transfected with HA-Flag-GHRHR-Rluc8 (WT or mutant) and β-arrestin2-Venus (1:9); 5 μM coelenterazine h; BRET ratio 535/470 nm followed after addition of 250 μM GHRH; AUC normalized to WT
[4] = target: T3, HA-Flag-GHRHR-Rluc8 A271V (human) (UniProt Q02643); experiment: as above
T3 sequence: T1 sequence with A249V

[5] = target: T4, HA-Flag-GHRHR-Rluc8 S292W (human) (UniProt Q02643); experiment: as above
T4 sequence: T1 sequence with S270W

[6] = target: T5, GHRHR(23-405)-15AA-LgBiT-2MBP (human) (UniProt Q02643); experiment: radioligand binding; whole HEK 293T cells 24 h after transfection; 125I-GHRH (80 pM) competed by seven decreasing concentrations of unlabeled GHRH (from 10 μM); binding buffer PBS with 10% (w/v) BSA, pH 7.4, RT, 3 h; three-parameter logistic fit, normalized to WT; only the binder purified
T5 sequence: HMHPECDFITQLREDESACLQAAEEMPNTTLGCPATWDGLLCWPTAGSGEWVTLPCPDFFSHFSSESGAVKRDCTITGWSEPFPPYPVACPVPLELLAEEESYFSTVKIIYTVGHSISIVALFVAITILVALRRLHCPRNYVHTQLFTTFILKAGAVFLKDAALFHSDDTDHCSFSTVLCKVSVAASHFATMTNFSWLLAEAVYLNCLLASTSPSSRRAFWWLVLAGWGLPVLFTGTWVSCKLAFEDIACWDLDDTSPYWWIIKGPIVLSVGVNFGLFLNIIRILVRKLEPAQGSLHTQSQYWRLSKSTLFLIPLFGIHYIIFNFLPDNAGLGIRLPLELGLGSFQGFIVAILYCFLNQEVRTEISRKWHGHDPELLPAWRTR

[7] = target: T6, GHRHR(23-423) (WT) (human) (UniProt Q02643); experiment: as above
T6 sequence: T1 sequence

[8] = target: T7, GHRHR(23-405)-LgBiT-2MBP (human) (UniProt Q02643); experiment: radioligand binding; whole cell competition: HEK 293 T cells transfected with the receptor, 125I-GHRH (80 pM) against unlabeled peptide (from 10 μM), PBS with 10% BSA pH 7.4, RT, 3 h; only the binder purified
T7 sequence: T5 sequence

GHRHR(23-423) (human) = target: T8, GHRHR(23-423) (human) (UniProt Q02643); experiment: as above
T8 sequence: T1 sequence

Measured: binding

β-arrestin2-Venus (from UniProt P32121 1-409)
binds: [1] | [2] | [3] | [4] | [5]

B1: 125I-GHRH (peptide, UniProt P01286 32-75)
peptide: YADAIFTNSYRKVLGQLSARKLLQDIMSRQQGESNQERGARARL
modifications: 125I label (position not given)
binds: [6] | [7]

B2: Growth hormone-releasing hormone (GHRH) (peptide, UniProt P01286 32-75, looked up)
peptide: B1 peptide
binds: [8] | GHRHR(23-423) (human)

Source: PMC7567103 (Nature Communications, 2020)
